# Measurements: PMC3203871
# The chains behind the UniProt entries cited, without tags or fusion partners. Residues count along the entry.
# UniProt P22460, residues 518-613: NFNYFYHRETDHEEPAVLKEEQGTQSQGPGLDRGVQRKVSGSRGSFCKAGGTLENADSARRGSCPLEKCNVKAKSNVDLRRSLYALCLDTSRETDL
# These are yes or no findings as the source states them, for the method shown. Binding seen in cells or lysates may run through a third protein. Some binding calls cover weakened binding; strength is not graded here.
# B1: Four and a half LIM protein 1C (FHL1C) (protein, UniProt Q13642-3 1-194)
# chain: MAEKFDCHYCRDPLQGKKYVQKDGHHCCLKCFDKFCANTCVECRKPIGADSKEVHYKNRFWHDTCFRCAKCLHPLANETFVAKDNKILCNKCTTREDSPKCKGCFKAIVAGDQNVEYKGTVWHKDCFTCSNCKQVIGTGSFFPKGEDFYCVTCHETKFAKHCVKCNKGLVKAPVWWPMKDNPGTTTASTAKNAP
# modifications: 35S-methionine (radiolabelled)
# Biological target: GST-K_(v1.5) C-terminus fusion protein (residues 518 to 613 of human K_(v1.5)) (human) (UniProt P22460)
# Experiment: pull-down; purified GST fusion (10–20 µg) as bait with 10 µl reticulocyte lysate holding the 35S-labelled prey in 300 µl 25 mM HEPES-Na, 5 mM MgCl2, 5 mM EGTA, 0.05% Tween-20, pH 7.0, 2 h at 25°C; Glutathione Sepharose beads, elution with reduced glutathione, SDS-PAGE and autoradiography; only the target purified
binder,measurement,value
B1,binding,binds
